We go through 61 molecules from PubChem BioAssay AID445 (National Center for Advancing Translational Sciences (NCATS), 2006).

The experiment is described as follows: IkB Signaling. Conditions: ABC-DLBCL IkBa-CBG/CBR dual luciferase ratio (green luciferase fused to IkBa over red control in OCI-Ly3 lymphoma cells), 4 h. The method, boiled down:
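In this assay, an IκBα–CBG68 fusion accumulates when IKK-driven degradation is blocked; native CBR normalizes for cell number. OCI-Ly3 cells were treated 4 h with compound and doxycycline, then green and red light read after Chroma-Glo addition.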

[1] abbreviates: measured here: control luc red channel unless noted.

Molecules are shown by their SMILES. The list shows a part of the results. Further columns of the screen follow, without active or inactive calls. Most of these compounds were active or inconclusive in the main read-out, so they are no random draw. Words in brackets tell the shape of the fitted curve; partial curves, single points and poor fits give uncertain potencies.

One may read the AC50 as the midpoint of the concentration-response curve, whichever way the signal moves. In the case of `CCCOc1ccc(C2CC(=O)Nc3c2c(C)nn3-c2nncc(-c3cccc(OC)c3)n2)cc1OC` (configuration not stated), the AC50 under setting [1] is 0.02 µM [rising, full curve]. With `COc1cccc(C2=CC(c3cc(Br)ccc3F)n3nnnc3N2)c1` (configuration not stated), the AC50 under setting [1] is 39.8 µM [falling, single point]. For the molecule `Cc1ccc(NC(=O)Nc2sc3nc4n(c(=O)c3c2C)CCC(C)CC4)c(Cl)c1` (configuration not stated), under setting [1], the AC50 was 12.6 µM [falling, partial curve]. With `COc1cccc(OC)c1C(=O)Nc1nc2c(s1)CCc1ccccc1-2`, the AC50 under setting [1] is 1.26 µM [falling, partial curve]. In the case of `Cc1nc(N2CCC3(CC2)OCCO3)c2nnn(Cc3ccccc3F)c2n1`, the AC50 under setting [1] was 39.8 µM [falling, single point]. In the case of `COC(=O)c1[nH]c2ccc(F)cc2c1NS(=O)(=O)c1ccc(OC)cc1OC`, under setting [1], the AC50 was 25.1 µM [falling, partial curve]. As to `Cc1cccc(N2C(=O)CSC23C(=O)N(CC(=O)NCc2ccccc2Cl)c2ccccc23)c1` (configuration not stated), the half-maximal activity concentration (AC50) under setting [1] is 25.1 µM [falling, partial curve]. The same measure, in the same setting: with `CO[C@@]12C[C@@H](COC(=O)c3cncc(Br)c3)CN(C)[C@H]1Cc1cn(C)c3cccc2c13` the figure was 20 µM [falling, partial curve, poor fit]; with `COc1ccc(CCNC(=O)C(=O)NCC(c2ccco2)S(=O)(=O)c2ccccc2)cc1` (configuration not stated), 0.01 µM [rising, full curve, poor fit]; with `C=CCNc1ncnc2c1ncn2C1OC(CO)C(O)C1O` (configuration not stated), 3.16 µM [rising, full curve]. The same measure, in the same setting: with `COc1ccc(-c2nnc3n2N(C(C)=O)C(c2ccc(Cl)c(Cl)c2)=C(C(C)=O)S3)cc1` the figure was 20 µM [falling, partial curve, poor fit]. For `CCN(C(=O)Cn1cnc2onc(-c3ccc(F)cc3)c2c1=O)c1ccc(OC)cc1`, the AC50 under setting [1] is 20 µM [falling, partial curve]. Same read-out and setting: with `COc1cc(C(=O)Nc2nc3ccccc3[nH]2)cc(OC)c1OC` the figure was 10 µM [falling, partial curve]. Still for that read-out and setting: with `Cc1oc2ncn(CC(C)C)c(=O)c2c1C(=O)NC(C)c1ccccc1` (configuration not stated) the figure was 20 µM [falling, single point]; with `Cc1cc(C)c2nc(NC(=O)c3ccc(S(=O)(=O)N4CCc5ccccc54)cc3)sc2c1`, 6.31 µM [falling, partial curve]; with `Cc1ccc(CNc2ncnc3onc(-c4ccc(F)cc4)c23)cc1`, 0.501 µM [falling, partial curve, poor fit]. Turning to `COc1ccc(C(=O)Nc2ccc3c(c2)CCCN3C(=O)c2cccs2)c(OC)c1`, the AC50 under setting [1] is 31.6 µM [falling, single point]. `Cc1cccc(-n2ccnc2SCC(=O)Nc2cccc3ccccc23)c1C`: under setting [1], the AC50 was 25.1 µM [falling, single point]. On to `O=C(Cn1c(=O)n(Cc2ccc3c(c2)OCO3)c(=O)c2oc3ccccc3c21)Nc1ccccc1F`, for which the AC50 under setting [1] was 3.16 µM [rising, partial curve]. Still for that read-out and setting: in the case of `Cc1cccc(-n2c(C)nc3cc(C(=O)NCCC4=CCCCC4)ccc32)c1` it was 39.8 µM [falling, single point]. For `COc1ccc(NC(=O)CCNS(=O)(=O)c2cccc3nsnc23)cc1Cl`, the AC50 under setting [1] was 25.1 µM [falling, single point]. Still for that read-out and setting: in the case of `CCn1c(=O)cc(OCC(=O)N2CCN(c3ccc(OC)cc3)CC2)c2ccccc21` it was 10 µM [falling, partial curve]; in that of `Cc1ccccc1Cc1c(C)nc2c(C(=O)NCc3ccco3)cnn2c1C`, 7.94 µM [falling, partial curve]. In the case of `COc1ccc(CCNC(=O)c2cc3sccc3n2Cc2ccc(Cl)cc2)cc1OC`, the AC50 under setting [1] was 39.8 µM [falling, single point].

As to `CCOc1ccccc1CN1CCc2nc(Nc3ccc4c(c3)OCCO4)ncc2C1`, the AC50 under setting [1] was 25.1 µM [falling, single point]. On the same count and under the same terms, in the case of `O=C(Nc1ccc2nc(SCC(=O)N3CCCC3)sc2c1)c1cccc(Cl)c1` it was 25.1 µM [falling, single point]. For `COc1ccc(NC(=O)Cn2c(=O)n(-c3ccc(C)cc3)c(=O)c3c2cnn3C)cc1`, under setting [1], the AC50 is 0.0398 µM [falling, full curve]. As for `CC(C)CCNC(=O)C1CCN(c2nc3ccc(Cl)cc3[nH]2)CC1`, the half-maximal activity concentration (AC50) under setting [1] was 7.94 µM [falling, partial curve]. `Cc1noc(C)c1COC(=O)CCN1c2ccccc2Sc2ccccc21`: the AC50 under setting [1] is 12.6 µM [falling, partial curve].

Take `Cc1cccn2c(=O)c3cc(C(=O)NCc4cccnc4)c(=N)n(CCCO)c3nc12`: the half-maximal activity concentration (AC50) under setting [1] was 25.1 µM [falling, partial curve, poor fit].

For the molecule `COC(=O)c1c(C)oc2ccc(N(C(=O)c3ccncc3)S(=O)(=O)c3c(C)cc(C)cc3C)cc12`, under setting [1], the AC50 was 15.8 µM [falling, partial curve]. Consider `O=C(NCc1ccccc1)c1nc(S(=O)(=O)Cc2ccccc2)ncc1Cl`, for which the AC50 under setting [1] is 7.94 µM [falling, full curve]. As for `CN1CCc2nc3sc(C(=O)Nc4ccccc4OC(F)(F)F)c(N)c3cc2C1`, under setting [1], the AC50 is 25.1 µM [falling, partial curve]. The same measure, in the same setting: in the case of `Cc1sc2ncn(CC(=O)N3CCN(c4ccc(Cl)cc4)CC3)c(=O)c2c1S(=O)(=O)N1CCN(c2ncccn2)CC1` it was 10 µM [falling, partial curve]; in that of `CSC(=O)CC(=O)NC(=O)c1ccccc1`, 20 µM [falling, partial curve]; in that of `CC1=Nc2cc(C(=O)NCCc3ccccc3)ccc2Sc2c(C)ccc(C)c21`, 3.98 µM [rising, partial curve]. As to `CC1(C)CC(=O)C(Sc2nnc(-c3ccc(NS(C)(=O)=O)cc3)n2Cc2ccco2)C(=O)C1`, the AC50 (measured here: IkB-luc green channel) is 10 µM [rising, partial curve] and the AC50 (measured here: control luc red channel) is 5.01 µM [rising, full curve, poor fit]. `CCCN(CCC)CCNC(=O)c1ccc2c(c1)NC(=O)C(CS(=O)(=O)Cc1cccc(Br)c1)N2` (configuration not stated): the AC50 under setting [1] was 39.8 µM [falling, partial curve]. Take `COc1ccc(NC(=O)c2ccc3c(SCC(=O)O)c4c(nc3c2)CCC4)c(OC)c1`: the AC50 under setting [1] is 39.8 µM [falling, single point]. In the case of `CCOc1ccccc1N1CC(c2nc3ccccc3n2Cc2c(C)cc(C)cc2C)CC1=O` (configuration not stated), the AC50 under setting [1] is 20 µM [falling, partial curve]. `Cc1ccccc1C(=O)Nc1c(C)nc(Nc2ccccc2)nc1Nc1ccccc1`: the AC50 under setting [1] is 7.94 µM [falling, full curve]. In the case of `c1ccc(Cn2nnc3c(N4CCN(Cc5ccc6c(c5)OCO6)CC4)ncnc32)cc1`, the half-maximal activity concentration (AC50) under setting [1] is 25.1 µM [falling, partial curve]. Consider `Cc1cccc(N2CCN(C(=O)c3cc4c(=O)n(C)c5ccccc5c4s3)CC2C)c1` (configuration not stated), for which the AC50 under setting [1] is 15.8 µM [falling, partial curve]. For the molecule `COc1ccc(NC(=O)c2c(C)oc3ccc(O)c(CN4CCCCCC4)c23)cc1Cl`, the AC50 under setting [1] was 20 µM [falling, single point]. For the molecule `Cc1cccc(C(=O)Nc2c(C(=O)NCc3ccc(Cl)cc3)sc3nc(C)cc(C)c23)c1`, under setting [1], the AC50 is 31.6 µM [falling, partial curve]. In the case of `COc1ccc(OC)c(CCNC(=O)c2cnn(-c3ccccc3Cl)c2C2CCN(C(=O)OC(C)(C)C)CC2)c1`, the AC50 under setting [1] is 25.1 µM [falling, partial curve]. For `COc1ccc(CCNC(=O)c2cn(C)c3ccc(S(=O)(=O)N(C)C4CCCCC4)cc3c2=O)cc1OC`, under setting [1], the AC50 is 3.16 µM [rising, full curve]. For the molecule `CC(=O)Nc1ccc(S(=O)(=O)Nc2cc(-c3cn4ccccc4n3)ccc2C)cc1`, under setting [1], the AC50 is 39.8 µM [falling, partial curve]. Turning to `COc1ccccc1NC(=O)C1=C(C)Nc2nnnn2C1c1cc(Br)c(O)c(OC)c1` (configuration not stated), the AC50 under setting [1] was 6.31 µM [falling, partial curve].

For the molecule `COc1ccc(NC(=O)c2cnc(Nc3ccc(C)c(Cl)c3)c3ccccc23)cc1OC`, the AC50 under setting [1] was 0.631 µM [falling, full curve]. Still for that read-out and setting: in the case of `N#C/C(C(=O)NCc1ccco1)=C1/SC=C(c2ccccc2)N1c1ccccc1` it was 25.1 µM [rising, partial curve] [measured here: IkB-luc green channel]; in that of `CC1=Nc2cc(C(=O)NCCc3ccc(Cl)cc3)ccc2Sc2c(C)ccc(C)c21`, 3.98 µM [rising, partial curve]. Take `c1ccc2c(c1)CCC[C@@H]2C1=NCCN1`: under setting [1], the AC50 is 7.94 µM [rising, partial curve]. Take `CC1CCCCN1CCCNC(=O)c1cc(Sc2ccc(Cl)cc2)nc2ccccc12` (configuration not stated): under setting [1], the concentration at half-maximal activity (AC50) was 15.8 µM [falling, partial curve].

With `CCOC(=O)CC(=O)CSc1nc2ccccc2c(=O)n1CCc1ccc(S(N)(=O)=O)cc1`, under setting [1], the AC50 is 7.94 µM [falling, partial curve]. `O=S(=O)(c1ccc2c(c1)OCCO2)N1CCC(n2cnc3cc(F)ccc32)CC1`: under setting [1], the AC50 is 15.8 µM [falling, partial curve]. For the molecule `COc1ccccc1CNC(=O)c1oc2ccc3c(c2c1C)C(=O)CC(C)(C)O3`, under setting [1], the AC50 is 0.794 µM [rising, full curve].

Take `CCOc1ccc(-n2nc3ccc(NC(=O)c4ccc(-c5cccc(Cl)c5)o4)cc3n2)cc1`: the AC50 under setting [1] is 31.6 µM [falling, partial curve]. `Cc1nc2scc(C)n2c(=O)c1S(=O)(=O)Nc1cccc(C(F)(F)F)c1`: the concentration at half-maximal activity (AC50) under setting [1] is 39.8 µM [falling, single point].

For the molecule `CN1CCc2nc3sc(C(=O)Nc4ccccc4C(F)(F)F)c(N)c3cc2C1`, the AC50 under setting [1] is 31.6 µM [falling, single point]. Still for that read-out and setting: with `O=C(Nc1ccccc1C(=O)NCc1ccc(Cl)cc1)c1ccco1` the figure was 7.94 µM [falling, full curve, poor fit].
